Our source for the binding values is PMC12412611.

The chains behind the UniProt entries cited, without tags or fusion partners. Where a name states a change or a piece, a line headed by the entry shows the natural chain unless it says otherwise.
UniProt P57764: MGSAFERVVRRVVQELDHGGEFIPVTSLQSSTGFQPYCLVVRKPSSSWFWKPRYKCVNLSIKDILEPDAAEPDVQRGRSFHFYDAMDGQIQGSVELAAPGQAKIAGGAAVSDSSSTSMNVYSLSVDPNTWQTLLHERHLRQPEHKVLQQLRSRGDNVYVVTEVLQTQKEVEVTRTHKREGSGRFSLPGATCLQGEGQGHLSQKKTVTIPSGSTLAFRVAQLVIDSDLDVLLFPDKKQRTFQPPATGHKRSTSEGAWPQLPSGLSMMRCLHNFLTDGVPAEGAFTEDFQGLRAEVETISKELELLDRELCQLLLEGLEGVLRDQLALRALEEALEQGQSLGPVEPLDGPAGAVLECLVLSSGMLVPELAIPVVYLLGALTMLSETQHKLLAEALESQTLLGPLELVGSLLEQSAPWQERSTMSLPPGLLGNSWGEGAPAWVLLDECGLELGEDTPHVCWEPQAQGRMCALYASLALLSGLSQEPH
UniProt Q13263: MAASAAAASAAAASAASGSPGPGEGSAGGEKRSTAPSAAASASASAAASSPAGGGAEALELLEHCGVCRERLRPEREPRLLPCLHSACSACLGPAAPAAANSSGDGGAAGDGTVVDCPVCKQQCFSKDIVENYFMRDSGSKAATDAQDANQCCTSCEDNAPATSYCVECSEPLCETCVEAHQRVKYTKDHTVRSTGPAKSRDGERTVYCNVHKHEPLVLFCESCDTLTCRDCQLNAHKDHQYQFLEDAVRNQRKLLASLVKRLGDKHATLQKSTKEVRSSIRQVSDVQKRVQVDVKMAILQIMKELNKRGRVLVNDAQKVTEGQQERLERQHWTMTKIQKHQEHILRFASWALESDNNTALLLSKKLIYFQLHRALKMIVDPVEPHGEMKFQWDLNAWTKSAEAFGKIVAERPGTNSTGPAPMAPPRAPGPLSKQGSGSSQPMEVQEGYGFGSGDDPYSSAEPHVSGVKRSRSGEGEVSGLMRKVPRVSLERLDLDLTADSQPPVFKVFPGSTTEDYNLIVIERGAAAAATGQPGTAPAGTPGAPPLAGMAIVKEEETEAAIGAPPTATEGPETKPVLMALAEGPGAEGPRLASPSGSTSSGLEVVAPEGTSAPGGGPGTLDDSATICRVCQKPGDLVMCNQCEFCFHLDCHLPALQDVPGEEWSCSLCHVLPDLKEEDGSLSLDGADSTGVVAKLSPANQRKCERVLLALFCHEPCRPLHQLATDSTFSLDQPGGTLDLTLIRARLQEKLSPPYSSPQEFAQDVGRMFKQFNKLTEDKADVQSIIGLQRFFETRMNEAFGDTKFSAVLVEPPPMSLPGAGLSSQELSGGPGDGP
UniProt O95786: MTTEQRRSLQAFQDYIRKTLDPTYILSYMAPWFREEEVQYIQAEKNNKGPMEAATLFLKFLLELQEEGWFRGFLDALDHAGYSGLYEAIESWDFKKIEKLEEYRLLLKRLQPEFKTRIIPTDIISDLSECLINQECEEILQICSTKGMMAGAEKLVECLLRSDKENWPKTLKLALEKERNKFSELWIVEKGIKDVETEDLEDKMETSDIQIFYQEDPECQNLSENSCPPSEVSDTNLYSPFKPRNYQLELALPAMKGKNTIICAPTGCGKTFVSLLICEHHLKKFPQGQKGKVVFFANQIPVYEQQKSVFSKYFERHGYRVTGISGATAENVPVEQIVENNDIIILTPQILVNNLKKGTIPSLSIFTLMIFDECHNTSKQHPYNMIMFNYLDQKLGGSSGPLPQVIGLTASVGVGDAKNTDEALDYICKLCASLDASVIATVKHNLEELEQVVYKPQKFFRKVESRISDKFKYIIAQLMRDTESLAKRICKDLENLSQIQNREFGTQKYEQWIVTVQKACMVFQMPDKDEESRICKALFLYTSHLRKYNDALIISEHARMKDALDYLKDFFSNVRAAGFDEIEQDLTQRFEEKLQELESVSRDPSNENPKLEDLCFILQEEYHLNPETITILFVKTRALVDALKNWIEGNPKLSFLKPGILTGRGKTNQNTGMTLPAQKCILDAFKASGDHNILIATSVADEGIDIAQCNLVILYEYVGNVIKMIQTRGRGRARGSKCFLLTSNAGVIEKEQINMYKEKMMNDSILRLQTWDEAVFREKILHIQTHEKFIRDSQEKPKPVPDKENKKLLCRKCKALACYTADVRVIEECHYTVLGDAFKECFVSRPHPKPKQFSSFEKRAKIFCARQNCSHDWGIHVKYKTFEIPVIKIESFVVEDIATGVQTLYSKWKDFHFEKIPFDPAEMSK
UniProt Q9UHD2: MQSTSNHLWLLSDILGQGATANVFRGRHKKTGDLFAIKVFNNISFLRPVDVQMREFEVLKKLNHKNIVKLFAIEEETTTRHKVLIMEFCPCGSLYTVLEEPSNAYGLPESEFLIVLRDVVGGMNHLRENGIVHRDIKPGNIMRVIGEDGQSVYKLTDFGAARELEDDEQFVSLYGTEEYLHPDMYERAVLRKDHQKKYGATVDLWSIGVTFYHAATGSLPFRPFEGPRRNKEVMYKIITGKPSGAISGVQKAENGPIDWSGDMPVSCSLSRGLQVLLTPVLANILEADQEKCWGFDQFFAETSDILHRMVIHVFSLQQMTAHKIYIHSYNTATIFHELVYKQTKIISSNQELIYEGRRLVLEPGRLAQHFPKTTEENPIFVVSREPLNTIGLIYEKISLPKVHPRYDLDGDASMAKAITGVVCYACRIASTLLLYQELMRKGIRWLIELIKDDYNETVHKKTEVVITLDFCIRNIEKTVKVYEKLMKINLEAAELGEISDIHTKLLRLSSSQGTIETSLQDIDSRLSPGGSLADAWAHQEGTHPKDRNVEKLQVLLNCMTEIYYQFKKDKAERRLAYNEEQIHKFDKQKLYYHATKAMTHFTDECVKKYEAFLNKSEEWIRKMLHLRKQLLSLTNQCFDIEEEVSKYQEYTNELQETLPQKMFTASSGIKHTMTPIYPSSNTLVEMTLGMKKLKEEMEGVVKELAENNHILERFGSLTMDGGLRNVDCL

Assay [1] concerns the target HA-GSDMD-CT (C-terminal domain of gasdermin D) (human) (UniProt P57764). In words: pull-down; in vitro pull-down: proteins expressed separately in HEK293T and enriched on antibody beads; Flag-tagged protein eluted with Flag peptide (100 µg/mL, 2 h, 4 °C) and incubated overnight at 4 °C with HA-tagged protein immobilised on HA beads; detected with anti-Flag; both purified.

For assay [2], the target named is HA-TRIM28 (Tripartite motif-containing 28) (UniProt Q13263). The description is as above.

These are yes or no findings as the source states them, for the method shown. Binding calls can cover weak binding; strength is not graded here.

With “Flag-RIG-I (retinoic acid-inducible gene I) (from UniProt O95786 1-925)”, in assay [1], the binding result is “binds”.
The same measure, in the same setting: the result for “Flag-TBK1 (tank-binding kinase) (from UniProt Q9UHD2 1-729) (enzyme)” reads “binds”.
On to “Flag-GSDMD-CT (C-terminal domain of gasdermin D) (from UniProt P57764) (domain or fragment)”, for which, in assay [2], the binding entry is recorded as “binds”.
